Data taken from publication PMC12089402.
Results are given in words; binding and its absence hold for the method and conditions named. In cells and extracts the contact can be indirect. Some binding calls cover weakened binding; strength is not graded here.

Chains of the proteins cited; added tags and fusions are not shown.
UniProt Q13761: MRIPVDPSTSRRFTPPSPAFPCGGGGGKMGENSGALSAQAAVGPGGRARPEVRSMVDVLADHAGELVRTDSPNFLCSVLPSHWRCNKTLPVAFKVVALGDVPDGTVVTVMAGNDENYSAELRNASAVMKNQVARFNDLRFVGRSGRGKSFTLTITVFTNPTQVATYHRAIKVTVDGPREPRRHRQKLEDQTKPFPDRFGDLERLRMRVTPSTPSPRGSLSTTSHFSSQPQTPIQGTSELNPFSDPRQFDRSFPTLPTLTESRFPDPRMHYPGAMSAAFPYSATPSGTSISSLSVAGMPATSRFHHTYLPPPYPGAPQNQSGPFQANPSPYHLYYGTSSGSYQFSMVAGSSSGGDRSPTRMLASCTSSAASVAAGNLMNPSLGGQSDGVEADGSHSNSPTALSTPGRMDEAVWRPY

Target: T1, ETS1 (human (endogenous in OCI-Ly1)) (UniProt P14921)
T1 sequence: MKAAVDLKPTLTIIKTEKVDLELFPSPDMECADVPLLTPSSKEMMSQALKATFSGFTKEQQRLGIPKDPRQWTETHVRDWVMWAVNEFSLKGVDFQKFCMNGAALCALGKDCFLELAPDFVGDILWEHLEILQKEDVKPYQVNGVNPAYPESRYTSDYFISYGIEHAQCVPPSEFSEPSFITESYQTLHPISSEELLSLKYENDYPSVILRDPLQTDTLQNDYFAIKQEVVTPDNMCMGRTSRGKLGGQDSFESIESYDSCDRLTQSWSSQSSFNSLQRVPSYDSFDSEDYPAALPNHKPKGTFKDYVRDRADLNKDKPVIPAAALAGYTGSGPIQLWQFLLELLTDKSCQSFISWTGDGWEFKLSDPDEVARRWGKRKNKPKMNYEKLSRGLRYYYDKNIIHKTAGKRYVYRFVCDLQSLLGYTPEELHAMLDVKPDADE
Experiment: co-IP; endogenous ETS1 immunoprecipitated with anti-ETS1 antibody on Protein A magnetic beads from 3 mg OCI-Ly1 lysate (Pierce IP Lysis Buffer, overnight at 4 °C), immunoblot for RUNX3; ARID1A WT and KO clones

RUNX3 (from UniProt Q13761 1-415)
binding: binds
